Measured values taken from patent US20240343803A1.
These are yes or no findings as the source states them, for the method shown. Some entries that bind do so weakly or less than the wild type. For some of these results: Where a sequence is shown, tags or fusion partners need not be part of it.

Experiments:
[1] = biological target: cynomolgus monkey PVRIG (Novoprotein, Cat NO. C09B) (cynomolgus monkey); assay: ELISA, coated cynomolgus monkey PVRIG
[2] = biological target: cynomolgus monkey TIGIT ECD-mFc (extracellular domain of cynomolgus monkey TIGIT and mouse IgG2a Fc fragment) (cynomolgus monkey); assay: ELISA
[3] = biological target: human TIGIT ECD-mFc (fusion protein of extracellular domain of human TIGIT and mouse IgG2a Fc fragment) (human); assay: ELISA
[4] = biological target: cynomolgus monkey TIGIT ECD-mFc (extracellular domain of cynomolgus monkey TIGIT and mouse IgG2a Fc fragment) (cynomolgus monkey); assay: summary of ELISA and FACS on cynomolgus monkey TIGIT
[5] = biological target: TIGIT on human PBMCs stimulated by SEA (human) (UniProt Q495A1); assay: flow cytometry on human PBMCs stimulated by SEA (summary of Example 8)
[6] = biological target: full-length human TIGIT on CHO-K1 cells (CHO-K1 human TIGIT) (human) (UniProt Q495A1); assay: FACS; high, medium and low expression strains
[7] = biological target: T1, human TIGIT ECD-his (fusion protein of extracellular domain of human TIGIT and His-tag) (human); assay: BIAcore, ELISA, FACS (summary of Table 18)
T1 sequence: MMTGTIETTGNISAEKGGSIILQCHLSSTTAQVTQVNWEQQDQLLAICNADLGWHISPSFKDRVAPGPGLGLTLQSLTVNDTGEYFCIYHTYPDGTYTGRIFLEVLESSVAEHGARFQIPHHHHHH

[8] = biological target: full-length human TIGIT on CHO-K1 cells (CHO-K1 human TIGIT) (human) (UniProt Q495A1); assay: FACS; cells with high, medium and low expression of human TIGIT
[9] = biological target: cynomolgus monkey PVRIG (Novoprotein, Cat NO. C09B) (cynomolgus monkey); assay: ELISA

B1: SRF813-hIgG1 (antibody, V domains shown)
VH: QVQLVQSGAEVKKPGSSVKVSCKASGGTFSSAAISWVRQAPGQGLEWMGNIIPIVGIANYAQKFQGRVTITADESTSTAYMELSSLRSEDTAVYYCARDTGRGYTRHFWFDPWGQGTLVTVSS
VL: DIQMTQSPSSLSASVGDRVTITCRASQSISSYLNWYQQKPGKAPKLLIYAASSLQSGVPSRFSGSGSGTDFTLTISSLQPEDFATYYCQQSDILYTFGGGTKVEIK
In the case of B1, the binding [1] is reported as “binds”.

B2: COM701-hIgG4 (antibody, V domains shown)
VH: QVQLVQSGAEVKKPGASVKVSCKASGYTFTDYNINWVRQAPGQGLEWMGYIYPYIGGSGYAQKFQGRVTMTRDTSTSTVYMELSSLRSEDTAVYYCAREDKTARNAMDYWGQGTLVTVSS
VL: DIQMTQSPSSLSASVGDRVTITCRVSENIYSNLAWYQQKPGKAPKLLIYEATNLAEGVPSRFSGSGSGTDFTLTISSLQPEDFATYYCQHFWGTPYTFGQGTKLEIK
B2 was tested, and the binding [1] was “binds”.

B3: COM701-hIgG1 (antibody, V domains shown)
VH: QVQLVQSGAEVKKPGASVKVSCKASGYTFTDYNINWVRQAPGQGLEWMGYIYPYIGGSGYAQKFQGRVTMTRDTSTSTVYMELSSLRSEDTAVYYCAREDKTARNAMDYWGQGTLVTVSS
VL: DIQMTQSPSSLSASVGDRVTITCRVSENIYSNLAWYQQKPGKAPKLLIYEATNLAEGVPSRFSGSGSGTDFTLTISSLQPEDFATYYCQHFWGTPYTFGQGTKLEIK
In the case of B3, the binding [1] is reported as “binds”.

B4: TIGIT-006-H5L3 (antibody, V domains shown)
VH: EVQLQESGPGLVKPSETLSLTCAVSGYSMTSDYWNWIRQPPGKKLEYIGYISYSGRTYYNPSLKSRVTISRDTSKNQFSLKLSSVTAADTAVYYCARGDYSNYGGAMYDWGQGTTVTVSS
VL: DIVMTQSPDSLAVSLGERATINCRASQGVSTTIAWYQQKPGQSPKLLIYSASYRYTGVPRFSGSGSGTDFTLTISSLQAEDVAVYYCQQYYSSPFTFGGGTKVEIK
In the case of B4, the binding [2] is reported as “binds”, the binding [3] is reported as “binds” and the binding [4] is reported as “binds”. For the same binder, the binding [5] was “binds”, the binding [6] was “binds” and the binding [7] was “binds”. For the same binder, the binding [8] was “binds”.

B5: PVRIG-A11 (VHH, not shown: a dimerising Fc or GST)
VHH: QLQLVESGGGLVQPGGSLRLSCAASGFTDDYYAIGWFRQAPGKEREGVSCISGSGGSTNYEDSVKGRFAISRDNAKNMVYLQMNDLKPEDTAVYYCAADPFWSAPCTGHNDRYFDVWGQGTLVTVSS
With B5 the binding [9] was “binds”.

B6: PVRIG-A15 (VHH, not shown: a dimerising Fc or GST)
VHH: QVQLVESGGGLVQAGGSLRLSCVASGRTFSANTMAWFRQAPGKEREFVAYTRWTDDNTDYASYADFVKGRFTAFRDNTRNTMYLQMNRLRPEDTAVYYCAAATTRGTYYSAGDYNSWGQGTQVTVSS
In the case of B6, the binding [9] is reported as “binds”.

B7: PVRIG-A50 (VHH, not shown: a dimerising Fc or GST)
VHH: EVQLVESGGGLVQPGGSLRLSCAASGFTFSYYDMSWVRQAPGKGLEWVSTINSNGGRTSYVDSVKGRFTISRDNTKNTLYLQMNSLKPEDTAVYYCVEGDPHNFGLENLSLRDFGSWGQGTQVTVSS
In the case of B7, the binding [9] is reported as “binds”.

B8: PVRIG-A75 (VHH, not shown: a dimerising Fc or GST)
VHH: QLQLVESGGGLVQSGGSLRLSCAASGRTRSMYVMGWFRQAPGKEREFVGRIKWSGDTTYTSYADFVKGRFTLYGNQARNTVYLQMNSLKPEDTAVYSCAASKFPVSGVPEHYDYWGQGTQVTVSS
B8 was tested, and the binding [9] was “binds”.

B9: PVRIG-A43 (VHH, not shown: a dimerising Fc or GST)
VHH: QVQLVESGGGLVQSGGSLRLSCAASGRTRSMYVMGWFRQAPGKEREFVGRIKWSGDTTYTSYADFVKGRFTLYGNQARNTVYLQMNSLKVEDTAVYYCAGRVVPLPSRQRDRYDYWGQGTQVTVSS
With B9 the binding [9] was “binds”.

B10: PVRIG-A105 (VHH, not shown: a dimerising Fc or GST)
VHH: EVQLVESGGGLVQAGGSLRLSCAASGRTFDRHTMTWFRQAPGKEREFVATASRIPGDTYYSHSVKGRFTISRDNAKNTVYLQLNNLKPEDTAVYYCAATSAYCSEVDCYEKGSWYDNWGQGIQVTVSS
B10 was tested, and the binding [9] was “binds”.

B11: PVRIG-A113 (VHH, not shown: a dimerising Fc or GST)
VHH: QLQLVESGGGLVQSGGSLRLSCAASGRTRSMYVMGWFRQAPGKEREFVGRIKWSGDTTYTSYADFVKGRFTLYGNQARNTVYLQMNSLKPEDTAVYYCAALPSDYDYRAASYGVDYWGKGTLVTVSS
B11 was tested, and the binding [9] was “binds”.

B12: PVRIG-A117 (VHH, not shown: a dimerising Fc or GST)
VHH: EVQVVESGGGLVQAGGSLRLSCTASEHIYDLYIMGWYRQAPGKDRELVATITYTGSIYIADSVKDRFTISRGNAKNTVSLQMSGLKPEDTAVYYCNADPSGLGRKLYWGQGTQVTVSS
B12 was tested, and the binding [9] was “binds”.

B13: PVRIG-A118 (VHH, not shown: a dimerising Fc or GST)
VHH: QVQLVESGGGLVQAGGSLRLSCAASETYFDLYVMGWYRQAPGKDRELVATITYTGSIKIVDSVKDRFTISRGDAKNTVSLQMSSLKPEDTAVYFCNADPSGLGRKVYWGQGTQVTVSS
For B13, the binding [9] was “binds”.
